Assay results reported in publication PMC8664928.
No constants are given. Whether binding was seen depends on the method and setting. In cells and extracts the contact can be indirect. Some entries that bind do so weakly or less than the wild type.

Amino acid sequences for entries named in this document (tags omitted). A change or cut given only in a name is not applied to a line headed by its entry. Chains listed by the source or under a name are the forms on record and can include a tag or linker.
UniProt E9PZQ0: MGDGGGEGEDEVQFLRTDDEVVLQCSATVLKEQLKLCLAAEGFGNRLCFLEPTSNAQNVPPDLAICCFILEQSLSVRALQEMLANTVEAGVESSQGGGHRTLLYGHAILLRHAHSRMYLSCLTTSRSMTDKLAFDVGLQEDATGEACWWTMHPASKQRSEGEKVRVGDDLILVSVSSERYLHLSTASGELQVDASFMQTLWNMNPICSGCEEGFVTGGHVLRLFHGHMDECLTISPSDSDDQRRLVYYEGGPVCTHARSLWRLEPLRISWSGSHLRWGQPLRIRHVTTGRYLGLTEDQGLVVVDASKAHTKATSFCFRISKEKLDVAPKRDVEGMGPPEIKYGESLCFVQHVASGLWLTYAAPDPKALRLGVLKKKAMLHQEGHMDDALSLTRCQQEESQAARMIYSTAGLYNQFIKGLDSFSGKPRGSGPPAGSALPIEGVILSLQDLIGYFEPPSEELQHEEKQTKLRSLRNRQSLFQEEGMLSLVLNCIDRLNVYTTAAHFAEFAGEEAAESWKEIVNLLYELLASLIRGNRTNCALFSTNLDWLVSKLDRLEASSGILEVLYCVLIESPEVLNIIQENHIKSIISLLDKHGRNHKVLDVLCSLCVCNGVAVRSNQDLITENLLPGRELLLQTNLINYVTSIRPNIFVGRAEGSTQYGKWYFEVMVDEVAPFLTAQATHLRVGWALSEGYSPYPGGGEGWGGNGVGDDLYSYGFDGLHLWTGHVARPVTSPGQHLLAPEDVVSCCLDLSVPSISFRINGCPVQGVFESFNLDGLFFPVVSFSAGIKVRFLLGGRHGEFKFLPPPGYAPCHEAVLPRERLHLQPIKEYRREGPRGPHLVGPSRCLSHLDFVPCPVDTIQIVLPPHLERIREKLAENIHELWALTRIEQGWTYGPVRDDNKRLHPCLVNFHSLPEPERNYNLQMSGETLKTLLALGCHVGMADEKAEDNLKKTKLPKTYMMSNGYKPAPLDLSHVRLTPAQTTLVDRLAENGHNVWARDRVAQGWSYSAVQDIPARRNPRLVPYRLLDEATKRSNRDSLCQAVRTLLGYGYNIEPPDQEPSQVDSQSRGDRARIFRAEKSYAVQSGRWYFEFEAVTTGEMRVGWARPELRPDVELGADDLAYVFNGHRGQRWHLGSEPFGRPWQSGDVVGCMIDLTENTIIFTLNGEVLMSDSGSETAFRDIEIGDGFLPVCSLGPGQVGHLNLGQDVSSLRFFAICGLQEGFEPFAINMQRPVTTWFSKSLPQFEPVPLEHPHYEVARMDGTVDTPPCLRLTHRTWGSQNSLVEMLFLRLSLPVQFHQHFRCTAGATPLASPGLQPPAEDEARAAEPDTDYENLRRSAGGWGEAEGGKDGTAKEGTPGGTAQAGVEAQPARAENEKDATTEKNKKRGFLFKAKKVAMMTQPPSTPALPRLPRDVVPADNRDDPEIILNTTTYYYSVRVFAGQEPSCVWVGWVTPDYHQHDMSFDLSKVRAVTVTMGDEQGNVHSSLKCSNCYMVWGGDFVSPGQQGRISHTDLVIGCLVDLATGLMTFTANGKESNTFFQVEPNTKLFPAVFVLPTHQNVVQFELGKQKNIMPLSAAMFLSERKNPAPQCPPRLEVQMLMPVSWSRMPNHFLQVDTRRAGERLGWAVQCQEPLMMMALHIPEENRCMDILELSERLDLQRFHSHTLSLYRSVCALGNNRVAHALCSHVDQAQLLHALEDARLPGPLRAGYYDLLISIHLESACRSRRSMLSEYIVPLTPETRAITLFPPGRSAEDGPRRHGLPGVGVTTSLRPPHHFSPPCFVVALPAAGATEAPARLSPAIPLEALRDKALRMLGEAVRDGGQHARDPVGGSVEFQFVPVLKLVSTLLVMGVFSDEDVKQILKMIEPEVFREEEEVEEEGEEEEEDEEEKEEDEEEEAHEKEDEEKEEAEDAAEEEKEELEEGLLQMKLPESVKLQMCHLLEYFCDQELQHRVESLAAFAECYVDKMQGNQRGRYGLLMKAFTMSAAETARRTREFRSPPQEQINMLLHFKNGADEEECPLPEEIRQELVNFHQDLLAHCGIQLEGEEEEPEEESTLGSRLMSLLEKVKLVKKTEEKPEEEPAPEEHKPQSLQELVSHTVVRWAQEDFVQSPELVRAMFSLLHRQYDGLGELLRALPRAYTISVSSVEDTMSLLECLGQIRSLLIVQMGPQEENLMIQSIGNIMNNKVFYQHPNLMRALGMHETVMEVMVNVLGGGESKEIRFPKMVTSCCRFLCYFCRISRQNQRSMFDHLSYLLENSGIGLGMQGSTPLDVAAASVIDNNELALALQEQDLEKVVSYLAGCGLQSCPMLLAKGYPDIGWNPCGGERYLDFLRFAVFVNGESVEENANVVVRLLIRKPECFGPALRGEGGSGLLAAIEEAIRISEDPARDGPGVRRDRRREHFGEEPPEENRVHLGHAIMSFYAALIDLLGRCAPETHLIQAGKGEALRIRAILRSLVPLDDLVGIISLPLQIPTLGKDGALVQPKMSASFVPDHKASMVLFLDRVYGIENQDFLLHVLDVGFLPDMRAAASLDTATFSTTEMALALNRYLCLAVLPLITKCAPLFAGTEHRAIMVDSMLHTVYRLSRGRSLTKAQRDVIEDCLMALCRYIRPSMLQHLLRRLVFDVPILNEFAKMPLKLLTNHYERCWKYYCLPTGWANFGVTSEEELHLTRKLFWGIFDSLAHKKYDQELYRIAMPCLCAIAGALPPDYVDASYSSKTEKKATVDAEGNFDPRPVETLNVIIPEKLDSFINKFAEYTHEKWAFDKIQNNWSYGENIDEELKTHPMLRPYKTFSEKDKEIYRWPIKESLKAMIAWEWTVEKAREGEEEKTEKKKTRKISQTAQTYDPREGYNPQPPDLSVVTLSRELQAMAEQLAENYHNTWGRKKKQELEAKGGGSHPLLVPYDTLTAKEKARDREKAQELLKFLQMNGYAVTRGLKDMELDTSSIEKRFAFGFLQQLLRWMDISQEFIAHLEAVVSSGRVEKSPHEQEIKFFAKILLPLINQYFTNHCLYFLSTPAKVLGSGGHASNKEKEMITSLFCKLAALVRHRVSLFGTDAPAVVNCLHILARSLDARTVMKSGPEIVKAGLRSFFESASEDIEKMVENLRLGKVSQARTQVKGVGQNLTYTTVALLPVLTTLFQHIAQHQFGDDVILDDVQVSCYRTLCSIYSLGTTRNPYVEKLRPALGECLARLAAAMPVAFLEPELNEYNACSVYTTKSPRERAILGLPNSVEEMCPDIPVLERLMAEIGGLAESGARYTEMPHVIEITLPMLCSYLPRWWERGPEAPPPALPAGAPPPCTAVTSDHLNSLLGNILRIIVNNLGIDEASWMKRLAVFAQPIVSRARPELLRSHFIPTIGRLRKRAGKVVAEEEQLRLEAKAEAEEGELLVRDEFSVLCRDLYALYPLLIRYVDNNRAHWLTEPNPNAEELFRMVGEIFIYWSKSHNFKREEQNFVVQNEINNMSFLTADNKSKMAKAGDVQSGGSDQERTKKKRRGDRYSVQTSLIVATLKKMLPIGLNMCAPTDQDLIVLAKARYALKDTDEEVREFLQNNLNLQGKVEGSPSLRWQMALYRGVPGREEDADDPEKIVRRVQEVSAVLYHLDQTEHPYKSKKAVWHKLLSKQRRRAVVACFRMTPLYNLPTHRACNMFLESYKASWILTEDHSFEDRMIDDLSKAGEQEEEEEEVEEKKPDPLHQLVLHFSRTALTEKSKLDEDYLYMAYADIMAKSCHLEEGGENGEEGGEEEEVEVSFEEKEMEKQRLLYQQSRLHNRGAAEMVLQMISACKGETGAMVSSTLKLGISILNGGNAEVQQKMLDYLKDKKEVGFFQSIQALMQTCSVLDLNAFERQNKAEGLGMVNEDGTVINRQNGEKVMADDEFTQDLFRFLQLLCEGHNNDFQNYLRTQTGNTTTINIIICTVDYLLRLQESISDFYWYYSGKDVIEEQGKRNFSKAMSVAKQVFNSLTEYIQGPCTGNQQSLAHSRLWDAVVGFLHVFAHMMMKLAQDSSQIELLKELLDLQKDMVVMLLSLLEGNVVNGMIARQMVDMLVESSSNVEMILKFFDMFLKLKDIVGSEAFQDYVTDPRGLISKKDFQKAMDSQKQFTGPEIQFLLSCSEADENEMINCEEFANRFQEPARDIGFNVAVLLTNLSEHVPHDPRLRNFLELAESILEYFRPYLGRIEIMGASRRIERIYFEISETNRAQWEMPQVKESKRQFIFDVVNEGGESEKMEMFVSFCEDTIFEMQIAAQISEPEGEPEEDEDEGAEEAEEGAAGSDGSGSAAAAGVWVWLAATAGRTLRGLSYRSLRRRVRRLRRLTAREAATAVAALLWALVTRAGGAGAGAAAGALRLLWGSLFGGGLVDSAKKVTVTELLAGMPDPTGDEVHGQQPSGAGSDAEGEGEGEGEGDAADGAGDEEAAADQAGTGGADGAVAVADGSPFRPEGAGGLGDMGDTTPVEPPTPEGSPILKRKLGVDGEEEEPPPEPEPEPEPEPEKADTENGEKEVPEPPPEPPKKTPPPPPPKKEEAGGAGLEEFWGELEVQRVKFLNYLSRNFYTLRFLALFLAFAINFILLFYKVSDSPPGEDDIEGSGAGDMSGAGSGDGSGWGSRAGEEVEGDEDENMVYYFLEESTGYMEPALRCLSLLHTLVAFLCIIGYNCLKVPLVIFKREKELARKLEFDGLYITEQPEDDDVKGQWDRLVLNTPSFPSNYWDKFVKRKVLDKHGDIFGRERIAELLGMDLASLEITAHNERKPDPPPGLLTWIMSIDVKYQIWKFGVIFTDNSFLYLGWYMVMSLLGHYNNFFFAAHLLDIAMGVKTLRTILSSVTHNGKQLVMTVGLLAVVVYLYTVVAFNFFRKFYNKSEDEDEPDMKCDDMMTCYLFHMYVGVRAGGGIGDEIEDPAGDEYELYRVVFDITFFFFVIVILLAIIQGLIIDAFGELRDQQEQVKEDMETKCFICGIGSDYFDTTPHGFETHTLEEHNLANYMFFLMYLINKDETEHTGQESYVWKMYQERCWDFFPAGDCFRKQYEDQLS
UniProt P26883: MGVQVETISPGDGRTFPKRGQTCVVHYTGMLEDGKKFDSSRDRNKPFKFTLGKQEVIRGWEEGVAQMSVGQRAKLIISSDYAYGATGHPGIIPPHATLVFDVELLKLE
sarco-endoplasmic Ca2+-ATPase (SERCA), mouse C2C12 myotubes, tested in the RyR1 immunoprecipitate (O55143-2, form named): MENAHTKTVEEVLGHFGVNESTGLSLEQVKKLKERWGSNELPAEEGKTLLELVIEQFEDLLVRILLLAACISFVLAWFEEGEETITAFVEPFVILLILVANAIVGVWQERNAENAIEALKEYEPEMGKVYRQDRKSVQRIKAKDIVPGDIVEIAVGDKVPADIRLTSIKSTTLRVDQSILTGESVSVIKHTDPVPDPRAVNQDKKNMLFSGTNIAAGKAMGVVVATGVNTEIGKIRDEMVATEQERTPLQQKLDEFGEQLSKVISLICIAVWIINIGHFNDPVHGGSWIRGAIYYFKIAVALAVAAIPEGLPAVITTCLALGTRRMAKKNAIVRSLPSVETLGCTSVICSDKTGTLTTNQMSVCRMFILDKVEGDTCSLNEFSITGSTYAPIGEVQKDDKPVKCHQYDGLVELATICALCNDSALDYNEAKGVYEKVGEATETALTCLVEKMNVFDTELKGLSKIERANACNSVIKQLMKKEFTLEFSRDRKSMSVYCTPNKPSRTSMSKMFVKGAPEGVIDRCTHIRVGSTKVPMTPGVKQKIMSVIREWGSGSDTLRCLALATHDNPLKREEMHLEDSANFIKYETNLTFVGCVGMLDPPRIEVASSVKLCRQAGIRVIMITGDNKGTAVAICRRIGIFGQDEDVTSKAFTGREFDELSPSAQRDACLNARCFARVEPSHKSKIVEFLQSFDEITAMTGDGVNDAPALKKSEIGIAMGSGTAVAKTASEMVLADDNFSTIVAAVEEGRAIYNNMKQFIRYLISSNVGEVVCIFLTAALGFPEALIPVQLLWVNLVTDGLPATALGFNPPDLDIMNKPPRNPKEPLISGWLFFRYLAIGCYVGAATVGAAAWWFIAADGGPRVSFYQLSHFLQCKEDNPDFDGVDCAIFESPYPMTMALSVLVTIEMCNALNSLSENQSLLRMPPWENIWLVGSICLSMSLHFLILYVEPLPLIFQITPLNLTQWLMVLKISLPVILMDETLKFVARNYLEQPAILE

Legend:
[1] = biological target: ryanodine receptor 1 (RyR1), human skeletal muscle (human (endogenous in vastus lateralis muscle)) (UniProt P21817); experiment: co-IP; RyR1 immunoprecipitated with anti-RyR1 antibody 5029 and protein A Sepharose from 250 ug homogenate of human vastus lateralis biopsies (Pre, Post, 24 h post SIT or MICT); modified RIPA buffer (50 mM Tris-HCl pH 7.4, 0.9% NaCl, 1% Triton X-100), 4 °C; immunoblot
[2] = biological target: ryanodine receptor 1 (RyR1), mouse C2C12 myotubes (mouse (endogenous in C2C12)) (UniProt E9PZQ0); experiment: co-IP; RyR1 immunoprecipitated with anti-RyR1 antibody 5029 and protein A Sepharose from 250 ug homogenate of C2C12 myotubes (CTRL, S-MICT, S-SIT; without or with 10 uM S107 for 3 h); modified RIPA buffer (50 mM Tris-HCl pH 7.4, 0.9% NaCl, 1% Triton X-100), 4 °C; immunoblot

| binding [1] | binding [2] | Substance |
| --- | --- | --- |
| no binding | – | sarco-endoplasmic Ca2+-ATPase (SERCA), human skeletal muscle (from UniProt P16615-2 1-997) |
| binds | – | calstabin1 (FKBP12), human skeletal muscle (from UniProt P62942 1-108) |
| – | binds | calstabin1 (FKBP12), mouse C2C12 myotubes (from UniProt P26883 1-108) |
| – | no binding | sarco-endoplasmic Ca2+-ATPase (SERCA), mouse C2C12 myotubes, tested in the RyR1 immunoprecipitate (from UniProt O55143-2 1-998) |
